Drawing on article PMC3828283, this text covers binding for two molecules.

Results are given in words; binding and its absence hold for the method and conditions named. In cells and extracts the contact can be indirect. Binding calls can cover weak binding; strength is not graded here. For part of these data: Sequences can lack the tags named with a protein.

Common to all, as to test: pull-down; GST or GST fusion protein bound to glutathione-Sepharose 4B mixed with 0.5 mg of mouse cardiac homogenates (untreated or treated beforehand with PKA) at 4°C for 16 h; 10 mM NaPO4 pH 7.2, 120 mM NaCl; western blot with PLN or PP1 antibody; only the target purified
For orientation: A western blot detects proteins with antibodies after separation by electrophoresis.

In assay [1] the target is T1, GST-Inhibitor-1 wild type (human) (UniProt Q13522).
T1 sequence: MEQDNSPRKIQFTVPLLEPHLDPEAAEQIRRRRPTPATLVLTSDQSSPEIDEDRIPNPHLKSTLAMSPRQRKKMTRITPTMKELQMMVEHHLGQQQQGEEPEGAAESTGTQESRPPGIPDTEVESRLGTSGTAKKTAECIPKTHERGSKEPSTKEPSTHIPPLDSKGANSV

A further assay deals with GST-GM (aa1-778) (human).
The target in assay [2] is GST-GM (aa382-778) (human).

Take PP1 of cardiac homogenates (enzyme): the binding result in assay [1] is on record as “binds”.

B1: native PLN protein of cardiac homogenates (protein, UniProt P61014 1-52)
chain: MEKVQYLTRSAIRRASTIEMPQQARQNLQNLFINFCLILICLLLICIIVMLL
As to B1, the binding result (with GST-GM (aa1-778) (human); in assay [2]) was “binds” throughout.
